Test results taken from publication PMC9898290.
Results are given in words; binding and its absence hold for the method and conditions named. Binding seen in cells or lysates may run through a third protein. Some entries that bind do so weakly or less than the wild type.

Assays:
[1] = target: T1, aromatase (human (endogenous in JEG-3 and in human placental tissues)) (UniProt P11511); experiment: co-IP; endogenous proteins in JEG-3 lysate; lysis buffer 100 mM NaCl, 50 mM Tris-HCl (pH 8.0), 5 mM EDTA, 1% Brij35; antibody against the bait or rabbit IgG with protein A/G plus agarose; beads washed five times; western blot
T1 sequence: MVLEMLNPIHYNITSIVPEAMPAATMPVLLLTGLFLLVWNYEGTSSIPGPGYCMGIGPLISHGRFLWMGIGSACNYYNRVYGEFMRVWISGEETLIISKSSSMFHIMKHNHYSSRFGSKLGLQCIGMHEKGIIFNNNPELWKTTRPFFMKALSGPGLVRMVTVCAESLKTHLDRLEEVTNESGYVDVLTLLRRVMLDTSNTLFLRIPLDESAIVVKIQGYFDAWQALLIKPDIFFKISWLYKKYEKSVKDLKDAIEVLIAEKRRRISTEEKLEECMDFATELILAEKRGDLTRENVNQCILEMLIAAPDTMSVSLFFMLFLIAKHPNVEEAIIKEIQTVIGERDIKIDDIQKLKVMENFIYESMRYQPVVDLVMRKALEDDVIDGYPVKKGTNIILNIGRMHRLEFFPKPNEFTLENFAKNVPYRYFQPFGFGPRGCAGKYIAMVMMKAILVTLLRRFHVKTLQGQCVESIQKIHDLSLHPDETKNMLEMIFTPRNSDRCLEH

[2] = target: T1, aromatase (human (endogenous in JEG-3 and in human placental tissues)); experiment: proximity ligation; in situ PLA on human placental tissues; anti-aromatase rabbit polyclonal 1:100 and anti-RGS2 mouse monoclonal 1:50; Duolink detection (red dots)

B1: regulator of G-protein signaling 2 (RGS2) (protein, UniProt P41220 1-211)
chain: MQSAMFLAVQHDCRPMDKSAGSGHKSEEKREKMKRTLLKDWKTRLSYFLQNSSTPGKPKTGKKSKQQAFIKPSPEEAQLWSEAFDELLASKYGLAAFRAFLKSEFCEENIEFWLACEDFKKTKSPQKLSSKARKIYTDFIEKEAPKEINIDFQTKTLIAQNIQEATSGCFTTAQKRVYSLMENNSYPRFLESEFYQDLCKKPQITTEPHAT
B1 was tested, and the binding [1] was “binds” and the binding [2] was “binds”.
